Results as given in publication PMC3390395.
For at least one entry, the source does not settle the construct or the ends of the probe.

The chains behind the UniProt entries cited, without tags or fusion partners. Residues count along the entry.
UniProt P26368, 2-475: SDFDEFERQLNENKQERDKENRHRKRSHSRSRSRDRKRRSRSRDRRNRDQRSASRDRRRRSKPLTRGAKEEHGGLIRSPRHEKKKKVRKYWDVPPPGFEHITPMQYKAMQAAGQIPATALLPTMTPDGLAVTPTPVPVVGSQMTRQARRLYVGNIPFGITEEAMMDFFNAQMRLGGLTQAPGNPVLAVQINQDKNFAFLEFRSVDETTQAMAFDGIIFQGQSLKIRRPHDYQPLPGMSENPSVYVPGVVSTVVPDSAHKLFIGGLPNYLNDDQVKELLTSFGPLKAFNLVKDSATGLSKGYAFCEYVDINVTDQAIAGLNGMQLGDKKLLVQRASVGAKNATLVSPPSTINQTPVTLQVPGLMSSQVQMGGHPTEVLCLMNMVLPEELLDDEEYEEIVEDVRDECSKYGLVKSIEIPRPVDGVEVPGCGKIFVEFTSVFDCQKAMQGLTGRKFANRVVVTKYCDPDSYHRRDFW

Biological target: rU2AF65 (UniProt P26368)
Assay: EMSA
Settings: 1-3 ug rU2AF65, dose dependent; EMSA: 50 mM Hepes-KOH pH 7.6, 40 mM MgCl2, 20 mM spermidine, 0.1 mM DTT, 0.5 mM EDTA, 1.5 mM ATP, 20% glycerol, 0.4 ug/uL tRNA, room temperature; recombinant protein; residues 2-475; protein details: His (pPROEX HTb); probe letters rebuilt from the primers and the genome

Sequence: GCUACAGUGUGAUCUAGAUGGGUAUGUAUUCAGGUAGAAUGUAUUACUCUUAUGCCUUUAAUUUGGGGGUGGGGGUUCUGGUUUUUUAUGUA [G2-G3~N-PU wild type probe]
- binding result: binds
